No constants are given. Whether binding was seen depends on the method and setting. In cells and extracts the contact can be indirect. A result given as binding can be weak or reduced; the word gives no strength.
Target: T1, BCAP (adaptor protein, product of Pik3ap1) (mouse (endogenous in primary CD4+ T cells)) (UniProt Q9EQ32)
T1 sequence (chain, phosphotyrosine after TCR stimulation (residues not told)): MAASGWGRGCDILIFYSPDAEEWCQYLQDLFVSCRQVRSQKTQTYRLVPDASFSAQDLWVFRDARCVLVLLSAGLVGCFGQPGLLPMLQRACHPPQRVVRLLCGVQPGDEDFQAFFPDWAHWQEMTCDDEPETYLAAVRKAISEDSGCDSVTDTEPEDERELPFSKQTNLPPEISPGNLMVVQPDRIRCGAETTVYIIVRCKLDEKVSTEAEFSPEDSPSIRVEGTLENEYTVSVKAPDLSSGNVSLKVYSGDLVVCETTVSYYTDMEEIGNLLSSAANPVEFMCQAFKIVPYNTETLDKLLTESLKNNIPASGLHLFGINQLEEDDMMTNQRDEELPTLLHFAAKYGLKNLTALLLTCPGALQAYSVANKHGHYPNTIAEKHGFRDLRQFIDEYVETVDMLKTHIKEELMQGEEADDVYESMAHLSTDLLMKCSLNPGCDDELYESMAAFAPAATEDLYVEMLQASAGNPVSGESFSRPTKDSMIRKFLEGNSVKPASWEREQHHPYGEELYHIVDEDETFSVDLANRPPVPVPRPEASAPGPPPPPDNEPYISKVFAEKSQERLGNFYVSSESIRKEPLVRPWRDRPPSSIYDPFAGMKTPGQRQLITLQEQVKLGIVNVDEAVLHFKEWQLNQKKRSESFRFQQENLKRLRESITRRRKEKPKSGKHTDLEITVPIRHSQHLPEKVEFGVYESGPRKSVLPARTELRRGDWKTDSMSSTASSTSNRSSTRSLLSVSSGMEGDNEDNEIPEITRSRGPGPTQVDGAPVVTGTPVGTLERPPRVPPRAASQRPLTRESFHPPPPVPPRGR
Test: co-IP; rabbit polyclonal anti-mouse-BCAP and protein-A-Sepharose on lysates of CD4+ T cell blasts stimulated by CD3-CD4-crosslinking; immunoblot for p85

- binding: binds
Substance: p85 (PI3K regulatory subunit, isoform not told)

Source: publication PMC7982423
